Measurements: patent publication US20060166876A1 (ONCOSCIENCE, published 2006)

By UniProt entry, the sequences of proteins in these tests, tags left out. Chains listed by the source or under a name are the forms on record and can include a tag or linker.
UniProt Q01196, other isoform, or with tags, fused parts or gaps limits assumed: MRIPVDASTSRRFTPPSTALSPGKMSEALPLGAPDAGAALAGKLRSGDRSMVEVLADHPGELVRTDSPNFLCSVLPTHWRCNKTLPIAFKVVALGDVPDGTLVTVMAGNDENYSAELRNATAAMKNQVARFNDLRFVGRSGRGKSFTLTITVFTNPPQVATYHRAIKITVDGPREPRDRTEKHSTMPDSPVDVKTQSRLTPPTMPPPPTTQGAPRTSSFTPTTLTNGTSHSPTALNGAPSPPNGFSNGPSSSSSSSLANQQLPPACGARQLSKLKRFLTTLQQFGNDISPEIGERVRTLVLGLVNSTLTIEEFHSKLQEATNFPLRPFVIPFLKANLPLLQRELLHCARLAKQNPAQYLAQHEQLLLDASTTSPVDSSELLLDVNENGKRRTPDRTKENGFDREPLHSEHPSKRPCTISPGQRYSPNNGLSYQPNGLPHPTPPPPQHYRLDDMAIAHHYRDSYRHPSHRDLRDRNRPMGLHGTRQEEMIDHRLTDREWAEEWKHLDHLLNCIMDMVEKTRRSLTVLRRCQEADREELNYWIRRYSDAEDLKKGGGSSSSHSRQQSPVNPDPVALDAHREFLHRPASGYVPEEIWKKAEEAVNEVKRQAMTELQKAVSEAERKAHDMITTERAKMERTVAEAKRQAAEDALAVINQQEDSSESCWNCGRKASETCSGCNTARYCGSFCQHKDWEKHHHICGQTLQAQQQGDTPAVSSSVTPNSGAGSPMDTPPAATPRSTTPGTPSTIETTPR

Target: AML1-ETO fusion protein (UniProt Q01196 1-177; Q06455 30-604, limits assumed)
Test: cell-based or functional assay

B1: GFP-M&M (designed binder, not shown: large carriers)
chain: VIANYLPNRTDVQCQHRWQKVLNPELIKGPWTKEEDQRVIELVQKYGPKRWSVIAKHLKGRIGKQCRERWHNHLNPEVKKTSWTEEEDRIIYQAHKRLGNRWAEIAKLLPGRTDNAIKNHWNSTMRRKVEQEGYATSHTMSTAEVLLNMESPSDILDEKQIFSTSEMLPDSDPAPAVTLPNYLFPASEPDALNRAGDTSDQEGHSLEEKASREESAKKTGKSKKRIRKTKGNRSTSPVTDPSIPIRKKSKDGKG
inhibition of promoter activity (myb-TK luciferase reporter, KCL22 cells co-transfected with GFP-M&M and AML1-ETO): > 5 fold
